Source: PubChem BioAssay AID720505 (Drosophila RNAi Screening Center, 2013)
Screen: 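Genes needed for store-operated calcium entry in fly cells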 (primary screen). Cells: Drosophila S2R+ cells. Knock-down reagent: long dsRNA against Drosophila genes. Challenge: thapsigargin (2 µM) in calcium-free buffer to empty internal stores, then 2 mM calcium added back. Measured: 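Fluo-4 signal in 384-well plates read on a FLIPR after thapsigargin (2 µM, calcium-free) store depletion and 2 mM calcium add-back; unnormalised mean endpoint per well; screen run twice, selected wells retested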. Scale: calcium signal and retest calcium signal: higher = more calcium entry after store depletion. Active means: 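Knock-downs counted as hits when calcium entry dropped relative to STIM1 positive and Rho1 negative controls present on each plate; roughly 1500 genes called, with reductions of differing size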. Meaning of the calls: active = called as lowering calcium entry; inactive = not called.
The screen tested about 20,000 reagents; this is a random part of those with a known target gene and a result. Over the whole deposit, about 2,100 (10%) were called active. 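Raw plate signals without normalisation; calls rest on control-based scores that were not deposited; replicate 2 separates called from uncalled poorly.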 No sequences are given here. The record does not give: the amount of reagent, the time to read-out.

The opening 6 entries, to show the layout:
Target gene,amplicon,"calcium signal, replicate 1","calcium signal, replicate 2","retest calcium signal, replicate 1","retest calcium signal, replicate 2",outcome
CG11368,DRSC17778,292,112,,,inactive
CG9581,DRSC20695,139,125,87.3,93.2,inactive
CG9581,DRSC22247,105,142,,,inactive
Lk,DRSC10022,79.1,152,,,inactive
apt,DRSC04671,101,90.5,,,inactive
apt,DRSC23278,104,125,,,inactive

Main list, repeating the preview:
Target gene,amplicon,"calcium signal, replicate 1","calcium signal, replicate 2","retest calcium signal, replicate 1","retest calcium signal, replicate 2",outcome
CG11368,DRSC17778,292,112,,,inactive
CG9581,DRSC20695,139,125,87.3,93.2,inactive
CG9581,DRSC22247,105,142,,,inactive
Lk,DRSC10022,79.1,152,,,inactive
apt,DRSC04671,101,90.5,,,inactive
apt,DRSC23278,104,125,,,inactive
hkb,DRSC12377,104,144,153,133,inactive
CG12547,DRSC07759,55.3,146,,,inactive
Nep1,DRSC18388,155,138,,,inactive
Nep1,DRSC18389,226,99.1,,,inactive
CG10801,DRSC17761,99.7,89.6,,,inactive
CG13074,DRSC09957,83.6,139,,,inactive
Cbp20,DRSC16601,144,107,,,inactive
CG11563,DRSC14327,79.5,127,,,inactive
CG12506,DRSC00347,141,122,,,inactive
CG9915,DRSC20217,92.7,119,,,inactive
CG9915,DRSC21565,172,104,,,inactive
CG31815,DRSC01548,65.1,117,,,active
Der-2,DRSC15021,100,194,,,inactive
RhoGEF4,DRSC11011,115,83.6,,,inactive
to,DRSC17086,223,130,,,inactive
dachs,DRSC01026,72.9,138,98.3,73.1,active
dachs,DRSC02072,101,246,,,inactive
dachs,DRSC02191,142,158,,,inactive
Pgant1,DRSC07095,99.9,210,,,inactive
betaTub65B,DRSC11393,82.9,65.9,,,inactive
fkh,DRSC16949,154,198,,,inactive
SMSr,DRSC10998,133,123,,,inactive
SMSr,DRSC10999,123,68.2,,,inactive
rho-5,DRSC02847,181,118,71.6,74.2,inactive
CG42233,DRSC14328,96,106,,,inactive
CG42233,DRSC15416,70.8,150,,,inactive
CG7747,DRSC07038,164,98.8,,,inactive
CTCF,DRSC11004,104,112,,,inactive
DCTN1-p150,DRSC11175,94.5,67.8,,,inactive
CG30430,DRSC22260,92.7,140,,,inactive
CG13795,DRSC02299,54.6,109,,,active
CG4537,DRSC02756,163,139,,,inactive
Grl40a,DRSC03677,91.4,5185,,,inactive
CG13917,DRSC08386,193,121,71.9,87.8,inactive
CG14036,DRSC02361,179,81.7,,,inactive
CG13671,DRSC10030,87.1,72,,,inactive
pHCl-1,DRSC09401,,,,,active
pHCl-1,DRSC09888,118,189,,,inactive
pHCl-1,DRSC09991,133,154,,,inactive
pHCl-1,DRSC10589,126,121,,,inactive
CG31883,DRSC02561,119,120,,,inactive
Mec2,DRSC20054,171,131,,,inactive
LRP1,DRSC07238,151,140,,,inactive
CG12860,DRSC06200,105,165,,,inactive
CG13130 (retired record),DRSC02226,112,114,,,inactive
blp,DRSC15757,155,200,,,inactive
CG33301,DRSC02778,78.9,92.1,,,active
CG4597,DRSC10432,111,97.2,,,inactive
CG33128,DRSC00294,64.7,198,180,99.1,active
CG31191,DRSC15214,240,165,,,inactive
CG31191,DRSC15215,244,194,,,inactive
